Results deposited as PubChem BioAssay AID1259254 (NCATS, 2017).

Purpose: 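Finding genes that stop cells copying their DNA twice in one cycle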 (primary screen)
System: human HCT116 colorectal cancer cells
Knock-down reagent: single siRNA against human genes
Timing: 3 days
Read-out: 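Nuclei stained with Hoechst and imaged; cell-cycle phase assigned by DNA content; G2 share scaled per plate, non-targeting siRNA 0%, GMNN siRNA 100%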
Reading the numbers: G2 robust z-score: higher = more G2 cells, more excess DNA replication
Hit rule: 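Active siRNAs have a G2 robust z of 5 or more median absolute deviations over the median, which in these data means about 38% or higher of GMNN control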
Shown is a random part of about 59,000 deposited reagents. About 1,550 of them (2.6%) count as active. 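G2 share is only a proxy for re-replication; each gene was hit by three separate siRNAs, and active genes were retested.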 A number with no mark means an inactive call. The numbers tell different reagents against one gene apart. Not all columns of the deposit are shown. Not stated in the record: the amount of reagent.

G2 robust z-score, by gene and reagent
ENTPD2: #1 0.0831; #2 2.15; #3 3.89
XKR9: #1 1.1; #2 2.49; #3 -1.29
ATL1: #1 -0.948; #2 -0.601; #3 -0.616
RUNDC3A: #1 1.14; #2 -0.759; #3 1.22
HRK: #1 5.6 (active); #2 -1; #3 0.594
SCAMP1: #1 0.52; #2 0.129; #3 0.615
COQ3: #1 0.446; #2 -0.159; #3 -0.833
NEDD4L: #1 -0.0314; #2 0.153; #3 -0.348
CLBA1: #1 -0.281; #2 1.67; #3 -0.575
ADAM21: #1 -0.808; #2 -0.246; #3 -0.315
PPP6R3: #1 0.341; #2 -0.533; #3 1.85

Laid out differently: results already given.
ENTPD2 #1 → G2 robust z-score = 0.0831
ENTPD2 #2 → G2 robust z-score = 2.15
ENTPD2 #3 → G2 robust z-score = 3.89
XKR9 #1 → G2 robust z-score = 1.1
XKR9 #2 → G2 robust z-score = 2.49
XKR9 #3 → G2 robust z-score = -1.29
ATL1 #1 → G2 robust z-score = -0.948

More results:
G2 robust z-score, by gene and reagent
UPK2: #1 1.22; #2 0.204; #3 -0.275
RPS6KA2: #1 0.433; #2 -0.668; #3 0.92
PRKAG2: #1 -0.506; #2 1.38; #3 0.868
KLRA1P: #1 -1.67; #2 -0.984; #3 1.54
EIF3M: #1 4.22; #2 -0.365; #3 0.109
ZNF343: #1 1.76; #2 -0.169; #3 -0.573
TMEFF1: #1 1.33; #2 -0.26; #3 0.0852
LRRC66: #1 3.95; #2 -0.92; #3 0.492
ERCC1: #1 0.0986; #2 -0.651; #3 -0.0118
USP49: #1 1.36; #2 0.896; #3 0.498
SNX29P1: #1 -0.9; #2 -0.0454; #3 1.33
PDGFD: #1 1.56; #2 3.61; #3 3.02
